# Screening data, single-dose tests

The chains behind the UniProt entries cited, without tags or fusion partners. Residues count along the entry.
UniProt P9WPC5, whole entry: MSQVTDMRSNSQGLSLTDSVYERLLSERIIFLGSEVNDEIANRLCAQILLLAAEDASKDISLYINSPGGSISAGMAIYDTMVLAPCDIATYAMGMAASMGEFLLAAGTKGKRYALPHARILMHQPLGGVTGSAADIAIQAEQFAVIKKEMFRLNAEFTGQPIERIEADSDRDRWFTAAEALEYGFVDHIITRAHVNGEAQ
UniProt P9WPC3, whole entry partner: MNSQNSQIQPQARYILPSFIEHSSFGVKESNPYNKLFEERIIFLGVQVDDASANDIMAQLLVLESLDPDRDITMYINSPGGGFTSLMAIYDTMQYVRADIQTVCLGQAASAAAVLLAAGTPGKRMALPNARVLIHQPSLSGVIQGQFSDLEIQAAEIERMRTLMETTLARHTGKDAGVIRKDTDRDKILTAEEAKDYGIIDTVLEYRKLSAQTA
UniProt P9WNZ1, whole entry: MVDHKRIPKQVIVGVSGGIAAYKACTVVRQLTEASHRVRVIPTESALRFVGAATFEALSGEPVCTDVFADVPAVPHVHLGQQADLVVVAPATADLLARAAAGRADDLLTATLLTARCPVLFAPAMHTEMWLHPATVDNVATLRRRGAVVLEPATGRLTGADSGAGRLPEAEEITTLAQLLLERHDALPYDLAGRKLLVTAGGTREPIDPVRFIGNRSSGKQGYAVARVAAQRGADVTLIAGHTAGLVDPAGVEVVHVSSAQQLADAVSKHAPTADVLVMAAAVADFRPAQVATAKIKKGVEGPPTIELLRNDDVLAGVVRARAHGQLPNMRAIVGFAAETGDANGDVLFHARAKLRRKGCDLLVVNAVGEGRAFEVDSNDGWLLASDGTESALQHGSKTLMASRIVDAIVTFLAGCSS
UniProt Q8IDJ8, 1-583: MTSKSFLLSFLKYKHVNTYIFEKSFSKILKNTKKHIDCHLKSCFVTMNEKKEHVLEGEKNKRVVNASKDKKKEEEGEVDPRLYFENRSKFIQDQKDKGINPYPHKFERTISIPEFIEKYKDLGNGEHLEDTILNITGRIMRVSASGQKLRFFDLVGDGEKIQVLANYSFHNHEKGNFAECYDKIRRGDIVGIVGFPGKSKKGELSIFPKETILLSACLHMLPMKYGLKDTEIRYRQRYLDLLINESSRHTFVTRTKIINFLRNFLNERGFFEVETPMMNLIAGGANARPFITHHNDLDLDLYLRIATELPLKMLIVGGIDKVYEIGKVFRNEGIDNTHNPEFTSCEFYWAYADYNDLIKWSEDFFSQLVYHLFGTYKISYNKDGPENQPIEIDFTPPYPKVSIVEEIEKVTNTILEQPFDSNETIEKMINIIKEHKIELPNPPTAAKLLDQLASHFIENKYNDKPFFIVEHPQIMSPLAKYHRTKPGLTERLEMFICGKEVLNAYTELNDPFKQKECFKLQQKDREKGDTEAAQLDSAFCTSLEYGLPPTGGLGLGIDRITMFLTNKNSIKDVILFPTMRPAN
UniProt Q4DA54, 1-478: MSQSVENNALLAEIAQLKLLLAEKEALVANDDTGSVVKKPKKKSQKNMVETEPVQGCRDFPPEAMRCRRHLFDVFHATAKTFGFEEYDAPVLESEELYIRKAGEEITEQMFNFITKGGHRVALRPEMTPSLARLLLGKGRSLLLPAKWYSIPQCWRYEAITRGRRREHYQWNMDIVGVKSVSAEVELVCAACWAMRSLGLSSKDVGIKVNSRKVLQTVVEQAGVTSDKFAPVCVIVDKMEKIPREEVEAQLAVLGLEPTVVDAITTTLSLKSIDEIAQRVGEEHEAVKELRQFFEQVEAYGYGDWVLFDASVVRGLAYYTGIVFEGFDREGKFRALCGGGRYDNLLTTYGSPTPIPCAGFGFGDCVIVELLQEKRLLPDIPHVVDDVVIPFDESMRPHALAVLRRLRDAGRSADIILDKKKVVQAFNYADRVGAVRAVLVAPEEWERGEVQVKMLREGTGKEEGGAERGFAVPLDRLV
UniProt I6X8D2, whole entry: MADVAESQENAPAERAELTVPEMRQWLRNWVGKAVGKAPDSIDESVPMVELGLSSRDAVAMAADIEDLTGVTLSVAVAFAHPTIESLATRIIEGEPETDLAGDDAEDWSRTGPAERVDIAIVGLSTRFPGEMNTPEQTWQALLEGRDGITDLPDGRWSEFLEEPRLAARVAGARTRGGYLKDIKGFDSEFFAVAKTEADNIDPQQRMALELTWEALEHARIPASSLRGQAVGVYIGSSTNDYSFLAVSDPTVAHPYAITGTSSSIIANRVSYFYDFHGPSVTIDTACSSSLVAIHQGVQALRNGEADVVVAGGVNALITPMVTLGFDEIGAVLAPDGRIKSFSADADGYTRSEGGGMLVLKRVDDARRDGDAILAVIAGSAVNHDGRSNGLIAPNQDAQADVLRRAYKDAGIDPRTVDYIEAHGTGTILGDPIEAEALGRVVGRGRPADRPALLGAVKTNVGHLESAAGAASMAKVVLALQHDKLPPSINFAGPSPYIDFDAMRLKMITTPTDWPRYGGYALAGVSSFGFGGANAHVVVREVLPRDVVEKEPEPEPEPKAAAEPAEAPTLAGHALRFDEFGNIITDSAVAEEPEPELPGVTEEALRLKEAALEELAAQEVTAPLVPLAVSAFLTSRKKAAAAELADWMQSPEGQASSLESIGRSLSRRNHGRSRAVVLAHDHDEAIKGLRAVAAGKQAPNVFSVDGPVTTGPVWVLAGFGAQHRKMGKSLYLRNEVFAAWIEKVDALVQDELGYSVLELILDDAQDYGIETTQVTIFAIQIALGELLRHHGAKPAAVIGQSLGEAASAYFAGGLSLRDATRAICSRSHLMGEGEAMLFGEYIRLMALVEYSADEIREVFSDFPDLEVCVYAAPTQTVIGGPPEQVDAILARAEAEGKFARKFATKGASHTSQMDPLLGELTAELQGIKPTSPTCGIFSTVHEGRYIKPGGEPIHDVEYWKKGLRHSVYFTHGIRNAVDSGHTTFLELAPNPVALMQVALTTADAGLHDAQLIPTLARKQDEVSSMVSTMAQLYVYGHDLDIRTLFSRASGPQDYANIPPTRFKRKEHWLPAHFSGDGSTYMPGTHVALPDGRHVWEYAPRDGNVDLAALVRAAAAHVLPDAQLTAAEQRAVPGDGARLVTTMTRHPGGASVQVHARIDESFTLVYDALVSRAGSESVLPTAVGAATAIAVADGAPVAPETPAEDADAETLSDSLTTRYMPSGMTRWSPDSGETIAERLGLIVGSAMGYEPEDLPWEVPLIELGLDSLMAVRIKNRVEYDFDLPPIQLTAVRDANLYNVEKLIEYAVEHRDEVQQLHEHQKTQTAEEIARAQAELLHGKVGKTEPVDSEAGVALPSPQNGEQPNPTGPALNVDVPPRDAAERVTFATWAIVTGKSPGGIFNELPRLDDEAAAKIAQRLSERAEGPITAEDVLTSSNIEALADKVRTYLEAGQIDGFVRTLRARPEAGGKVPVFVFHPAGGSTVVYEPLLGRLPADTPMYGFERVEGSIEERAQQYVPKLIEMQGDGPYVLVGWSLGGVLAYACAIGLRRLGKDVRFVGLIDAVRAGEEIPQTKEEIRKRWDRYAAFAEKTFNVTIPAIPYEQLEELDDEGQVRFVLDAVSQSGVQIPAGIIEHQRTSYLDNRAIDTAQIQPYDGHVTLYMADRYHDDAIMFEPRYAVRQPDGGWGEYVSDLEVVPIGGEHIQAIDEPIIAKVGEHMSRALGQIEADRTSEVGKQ

Data taken from ChEMBL document CHEMBL3988442, “University of Dundee, Small-Polar-MMV Screening Library” (2021).

Results are given as percent effect.
How 0% and 100% were set is not recorded. Most values in the screen are low, and negative values occur.
This is an unselected part of the compounds tested.

ClpP1P2: 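ClpP1P2, Mycobacterium tuberculosis (UniProt P9WPC5 and UniProt P9WPC3). Protease assay of ClpP1P2, read by the AMC dye that it sets free. Concentration: 50 µM. Direction is inferred from only a few compounds that gave an IC50; most scored high, so higher reads as stronger inhibition. Most other retested compounds had strongly negative values. About 69,000 compounds were tested under these conditions; 0.015% (about 10) showed 50% or more at least once.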
CoaBC: 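Enzyme assay of CoaBC with a phosphate dye (Biomol Green) read at 650 nm. Target: Coenzyme A biosynthesis protein CoaBC, Mycobacterium tuberculosis (UniProt P9WNZ1). Compounds at 30 µM. Direction is inferred from only a few compounds that gave an IC50; most scored high, so higher reads as stronger inhibition. Most strong results did not repeat in a second test. Of about 67,000 compounds tested this way, about 40 (0.06%) reached 50% or more in at least one test.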
PfKRS1: 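Enzyme assay of the cytosolic lysyl-tRNA synthetase in 384-well plates, read by luminescence. Target: Lysine-tRNA ligase, Plasmodium falciparum 3D7 (UniProt Q8IDJ8). Compounds at 30 µM. Direction is inferred from only a few compounds that gave an IC50; most scored high, so higher reads as stronger inhibition. Of about 69,000 compounds tested this way, about 49 (0.071%) reached 50% or more in at least one test.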
TcHisRS: 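Enzyme assay of histidyl-tRNA synthetase; the read-out is not stated. Target: Histidine-tRNA ligase, Trypanosoma cruzi CL Brener (UniProt Q4DA54). Concentration: 30 µM. Higher reads as stronger inhibition (inferred: compounds with an IC50 in retests scored well above the rest). Size under these conditions: about 69,000 compounds, about 31 of them at 50% or above in at least one test.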
Pks13 thioesterase: 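Polyketide synthase Pks13, Mycobacterium tuberculosis (UniProt I6X8D2). Enzyme assay of the thioesterase domain of polyketide synthase 13; the read-out is not stated. Compounds at 30 µM. Higher reads as stronger inhibition (inferred from which compounds were picked for retests). About 67,000 compounds were tested under these conditions; 0.46% (about 300) showed 50% or more at least once.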

For CCS(=O)(=O)N1CCN(Cc2cccnc2)c2nc(C)ccc2C1 the result was ClpP1P2: 15.15%; CoaBC: 4.26%; PfKRS1: 5.406%; TcHisRS: 7.563%; Pks13 thioesterase: -15.38%.
For CN(Cc1ccn[nH]1)Cc1c[nH]nc1-c1ccc(F)cc1 the result was ClpP1P2: 6.806%; CoaBC: -11.98%; PfKRS1: 3.812%; TcHisRS: 1.63%; Pks13 thioesterase: -53.99%.
For Cc1ccc(C2CCCN2Cc2nc3c(cnn3C)c(=O)[nH]2)cc1C (centres undefined) the result was ClpP1P2: 9.457%; CoaBC: 1.542%; PfKRS1: 15.16%; TcHisRS: 0.7519%; Pks13 thioesterase: -36.4%.
For Cc1[nH]nc(CCC(=O)N2CCc3ncnc(NCCO)c3CC2)c1C the result was ClpP1P2: -10.42%; CoaBC: -2.133%; PfKRS1: -0.1664%; TcHisRS: 3.483%; Pks13 thioesterase: -2.973%.
For CCC1CN(C(=O)c2ccccc2N2CCOCC2)CCN1C(C)C (centres undefined) the result was ClpP1P2: 2.297%; CoaBC: 2.447%; PfKRS1: -0.3994%; TcHisRS: -37.62%; Pks13 thioesterase: -9.642%.
For CS(=O)(=O)N1CCOC(CNC(=O)c2cccc(C#N)c2)C1 (centres undefined) the result was ClpP1P2: -3.613%; CoaBC: 6.426%; PfKRS1: 5.699%; TcHisRS: 1.064%; Pks13 thioesterase: -17.57%.
For O=C(C1CCCC1)N1CC2(CCN(C3COC3)C2)Cc2ccccc21 (centres undefined) the result was ClpP1P2: -1.468%; CoaBC: 8.421%; PfKRS1: -3.175%; TcHisRS: 8.876%; Pks13 thioesterase: -3.838%.
For Cc1nn(C)c(C)c1CN1CCNCC1 the result was ClpP1P2: -2.516%; CoaBC: 7.39%; PfKRS1: 6.224%; TcHisRS: 0.8696%; Pks13 thioesterase: -20.44%.
For Cc1cc2n(n1)CC(CNCc1ccccc1-n1cccn1)CN2 (centres undefined) the result was ClpP1P2: -26.47%; CoaBC: 8.999%; PfKRS1: -1.205%; TcHisRS: 5.325%; Pks13 thioesterase: -20.47%.
For Cc1ccccc1N1CC2(CCCCN2CC2CC2)CC1=O (centres undefined) the result was ClpP1P2: 2.417%; CoaBC: 11.67%; PfKRS1: 0.2937%; TcHisRS: 5.882%; Pks13 thioesterase: -47.31%.
For CC(C)c1nc2c(n1C)CCN(CC(=O)Nc1cccnc1)C2 the result was ClpP1P2: -50.77%; CoaBC: 4.961%; PfKRS1: 0.9483%; TcHisRS: 1.458%; Pks13 thioesterase: -35.93%.
For CN1CCOC(CNCCc2ccccn2)C1 (centres undefined) the result was ClpP1P2: 11.43%; CoaBC: 7.712%; PfKRS1: 8.331%; TcHisRS: 3.759%; Pks13 thioesterase: -29.04%.
For CCc1n[nH]c(C2CN(C(=O)c3csnn3)CCO2)n1 (centres undefined) the result was ClpP1P2: 6.233%; CoaBC: 6.923%; PfKRS1: 4.563%; TcHisRS: 0.3774%; Pks13 thioesterase: -15.8%.
For CCOC(CC)C(=O)NCc1cccc(N2CCCCC2=O)c1 (centres undefined) the result was ClpP1P2: -7.903%; CoaBC: 3.24%; PfKRS1: 2.134%; TcHisRS: -3.361%; Pks13 thioesterase: -7.155%.
For Cc1cnn(C2CN(CC(O)c3ccc(F)cc3)C2)c1 (centres undefined) the result was ClpP1P2: -21.59%; CoaBC: -4.464%; PfKRS1: 1.335%; TcHisRS: 5.394%; Pks13 thioesterase: -26.58%.
For CN(CCNC(=O)N1CCN(Cc2ccon2)CC1)c1ccccc1 the result was ClpP1P2: -19.26%; CoaBC: -9.821%; PfKRS1: 2.959%; TcHisRS: 2.075%; Pks13 thioesterase: -13.32%.
For COc1ccc(-c2nccn2C[C@@H]2CCCN3CCCC[C@H]23)cc1 the result was ClpP1P2: 4.974%; CoaBC: -0.2058%; PfKRS1: -0.6935%; TcHisRS: 12.04%; Pks13 thioesterase: 4.132%.
For CC(C)NC(=O)[C@@]12CCO[C@@H]1CCN(Cc1ccc3c(c1)OCO3)C2 the result was ClpP1P2: -0.1101%; CoaBC: -0.9756%; PfKRS1: 4.236%; TcHisRS: 1.111%; Pks13 thioesterase: 11.1%.
For O=C(NC[C@H]1OC[C@@H](NC2CCNCC2)[C@@H]1O)C1CCCC1 the result was ClpP1P2: -6.129%; CoaBC: 13.47%; PfKRS1: 5.069%; TcHisRS: 3.261%; Pks13 thioesterase: -0.05915%.
For CCNC(=O)NC(=O)CNC1(c2noc(C)n2)CCCC1 the result was ClpP1P2: 4.61%; CoaBC: -2.286%; PfKRS1: -2.779%; TcHisRS: 2.513%; Pks13 thioesterase: -12.78%.
For Cc1csc(CN2C[C@@H]3CN(C)CCO[C@@H]3C2)n1 the result was ClpP1P2: 2.762%; CoaBC: -3.202%; PfKRS1: 5.971%; TcHisRS: 2.062%.
For CCC[C@H]1CN(S(=O)(=O)c2ccc(-c3c(C)noc3C)s2)C[C@@H]1N the result was ClpP1P2: -0.0884%; PfKRS1: -1.625%; TcHisRS: 9.554%; Pks13 thioesterase: -22.27%.

2 of the entries, repeated:

Result for CS(=O)(=O)N1CCOC(CNC(=O)c2cccc(C#N)c2)C1 (centres undefined) was ClpP1P2: -3.613%; CoaBC: 6.426%; PfKRS1: 5.699%; TcHisRS: 1.064%; Pks13 thioesterase: -17.57%.
Result for CN(CCNC(=O)N1CCN(Cc2ccon2)CC1)c1ccccc1 was ClpP1P2: -19.26%; CoaBC: -9.821%; PfKRS1: 2.959%; TcHisRS: 2.075%; Pks13 thioesterase: -13.32%.